The supplement of paper PMC10849652
Some of the results follow.

The chains behind the UniProt entries cited, without tags or fusion partners. Where a name states a change or a piece, a line headed by the entry shows the natural chain unless it says otherwise.
UniProt Q13490, whole entry, looked up: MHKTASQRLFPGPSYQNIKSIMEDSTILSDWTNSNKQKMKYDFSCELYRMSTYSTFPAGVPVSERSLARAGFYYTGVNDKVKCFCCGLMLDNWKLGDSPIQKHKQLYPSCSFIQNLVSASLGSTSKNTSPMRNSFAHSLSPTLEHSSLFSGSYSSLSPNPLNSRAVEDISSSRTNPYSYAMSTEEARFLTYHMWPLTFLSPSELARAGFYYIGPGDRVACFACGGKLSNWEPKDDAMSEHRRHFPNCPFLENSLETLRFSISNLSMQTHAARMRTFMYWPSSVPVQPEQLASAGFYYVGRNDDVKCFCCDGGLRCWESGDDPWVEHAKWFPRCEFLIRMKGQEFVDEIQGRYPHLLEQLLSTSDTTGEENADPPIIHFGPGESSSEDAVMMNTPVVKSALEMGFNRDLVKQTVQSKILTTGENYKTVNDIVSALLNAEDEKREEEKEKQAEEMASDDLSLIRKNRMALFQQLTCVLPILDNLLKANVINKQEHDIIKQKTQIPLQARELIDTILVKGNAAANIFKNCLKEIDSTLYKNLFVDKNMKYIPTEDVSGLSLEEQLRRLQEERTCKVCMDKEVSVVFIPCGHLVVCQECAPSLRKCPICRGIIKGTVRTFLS
UniProt O60909: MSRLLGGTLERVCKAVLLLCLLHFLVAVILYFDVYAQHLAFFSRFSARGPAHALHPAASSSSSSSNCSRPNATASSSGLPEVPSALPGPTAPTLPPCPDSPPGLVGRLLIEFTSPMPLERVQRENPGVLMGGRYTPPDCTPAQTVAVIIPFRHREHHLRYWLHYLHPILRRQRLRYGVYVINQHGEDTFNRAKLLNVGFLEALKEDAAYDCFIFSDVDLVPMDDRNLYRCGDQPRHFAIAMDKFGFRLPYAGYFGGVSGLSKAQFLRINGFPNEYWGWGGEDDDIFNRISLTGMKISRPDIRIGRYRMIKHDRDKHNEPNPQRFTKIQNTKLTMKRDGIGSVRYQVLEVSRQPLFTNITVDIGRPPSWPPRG
UniProt Q14692: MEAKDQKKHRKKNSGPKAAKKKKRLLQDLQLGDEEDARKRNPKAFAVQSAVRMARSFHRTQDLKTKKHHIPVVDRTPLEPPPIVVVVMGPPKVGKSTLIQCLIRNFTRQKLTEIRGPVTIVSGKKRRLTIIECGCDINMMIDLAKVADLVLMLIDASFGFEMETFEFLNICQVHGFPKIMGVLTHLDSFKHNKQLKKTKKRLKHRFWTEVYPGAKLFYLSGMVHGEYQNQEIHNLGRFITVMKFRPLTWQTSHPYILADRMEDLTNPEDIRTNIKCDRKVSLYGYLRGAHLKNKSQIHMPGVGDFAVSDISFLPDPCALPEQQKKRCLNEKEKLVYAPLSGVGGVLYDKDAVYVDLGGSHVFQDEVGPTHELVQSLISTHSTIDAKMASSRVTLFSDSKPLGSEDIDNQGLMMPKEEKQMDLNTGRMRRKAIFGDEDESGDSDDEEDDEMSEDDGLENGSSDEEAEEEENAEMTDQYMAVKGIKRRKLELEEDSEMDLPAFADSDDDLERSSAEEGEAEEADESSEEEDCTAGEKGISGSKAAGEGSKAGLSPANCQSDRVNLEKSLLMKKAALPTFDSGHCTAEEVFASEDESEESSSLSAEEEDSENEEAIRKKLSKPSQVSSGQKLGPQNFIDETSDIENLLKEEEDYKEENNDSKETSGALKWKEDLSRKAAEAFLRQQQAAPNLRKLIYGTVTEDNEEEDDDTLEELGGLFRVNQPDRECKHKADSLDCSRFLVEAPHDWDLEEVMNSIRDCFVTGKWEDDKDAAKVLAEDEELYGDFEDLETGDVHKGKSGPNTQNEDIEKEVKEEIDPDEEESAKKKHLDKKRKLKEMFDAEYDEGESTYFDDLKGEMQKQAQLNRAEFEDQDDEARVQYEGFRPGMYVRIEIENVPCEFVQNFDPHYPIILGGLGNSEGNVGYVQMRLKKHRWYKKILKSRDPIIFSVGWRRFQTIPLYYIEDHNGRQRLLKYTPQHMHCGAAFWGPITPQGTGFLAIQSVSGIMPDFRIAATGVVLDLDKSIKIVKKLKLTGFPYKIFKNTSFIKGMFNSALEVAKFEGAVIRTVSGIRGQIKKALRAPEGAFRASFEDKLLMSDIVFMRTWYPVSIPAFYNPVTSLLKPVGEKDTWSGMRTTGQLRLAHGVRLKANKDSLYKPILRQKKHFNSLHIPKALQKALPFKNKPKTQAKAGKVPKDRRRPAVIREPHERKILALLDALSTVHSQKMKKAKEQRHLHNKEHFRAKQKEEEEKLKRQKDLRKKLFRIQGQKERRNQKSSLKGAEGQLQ
UniProt Q9BXK5, whole entry, looked up: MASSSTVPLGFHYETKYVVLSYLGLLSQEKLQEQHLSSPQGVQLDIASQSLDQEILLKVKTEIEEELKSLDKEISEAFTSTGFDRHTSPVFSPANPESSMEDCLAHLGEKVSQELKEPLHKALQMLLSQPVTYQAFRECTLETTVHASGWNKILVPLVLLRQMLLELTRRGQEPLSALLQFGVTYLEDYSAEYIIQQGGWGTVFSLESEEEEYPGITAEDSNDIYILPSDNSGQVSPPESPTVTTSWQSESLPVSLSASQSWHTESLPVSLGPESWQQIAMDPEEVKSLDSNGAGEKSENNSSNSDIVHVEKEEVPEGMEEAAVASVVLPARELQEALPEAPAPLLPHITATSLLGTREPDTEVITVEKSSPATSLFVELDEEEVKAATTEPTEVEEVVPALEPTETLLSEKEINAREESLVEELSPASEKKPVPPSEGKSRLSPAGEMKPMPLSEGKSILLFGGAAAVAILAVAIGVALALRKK
UniProt O94766: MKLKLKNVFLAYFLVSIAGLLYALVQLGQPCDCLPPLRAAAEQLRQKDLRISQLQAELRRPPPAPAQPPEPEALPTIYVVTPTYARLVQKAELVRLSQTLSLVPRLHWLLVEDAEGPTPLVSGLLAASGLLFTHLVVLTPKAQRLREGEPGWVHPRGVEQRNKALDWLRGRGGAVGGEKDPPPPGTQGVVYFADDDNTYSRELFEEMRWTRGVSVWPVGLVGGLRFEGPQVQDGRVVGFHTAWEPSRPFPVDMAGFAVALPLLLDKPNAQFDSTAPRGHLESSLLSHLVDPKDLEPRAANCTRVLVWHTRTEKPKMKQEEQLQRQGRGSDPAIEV
UniProt Q9H3K6: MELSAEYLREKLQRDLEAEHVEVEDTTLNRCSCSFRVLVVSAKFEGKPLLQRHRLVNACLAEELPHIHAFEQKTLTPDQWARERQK
UniProt P51572: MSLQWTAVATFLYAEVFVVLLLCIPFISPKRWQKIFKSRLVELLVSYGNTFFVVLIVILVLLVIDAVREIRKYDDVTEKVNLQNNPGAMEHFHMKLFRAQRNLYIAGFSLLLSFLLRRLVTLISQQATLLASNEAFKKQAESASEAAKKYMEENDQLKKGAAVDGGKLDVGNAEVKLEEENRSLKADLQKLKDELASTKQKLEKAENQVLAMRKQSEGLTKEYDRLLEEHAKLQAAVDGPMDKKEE
UniProt Q8TDH9: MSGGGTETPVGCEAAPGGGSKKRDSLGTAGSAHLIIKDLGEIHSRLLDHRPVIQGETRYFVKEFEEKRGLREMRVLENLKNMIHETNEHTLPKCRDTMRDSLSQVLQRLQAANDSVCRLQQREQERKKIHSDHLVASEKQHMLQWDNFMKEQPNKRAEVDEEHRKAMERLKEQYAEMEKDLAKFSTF
UniProt Q9H2G9: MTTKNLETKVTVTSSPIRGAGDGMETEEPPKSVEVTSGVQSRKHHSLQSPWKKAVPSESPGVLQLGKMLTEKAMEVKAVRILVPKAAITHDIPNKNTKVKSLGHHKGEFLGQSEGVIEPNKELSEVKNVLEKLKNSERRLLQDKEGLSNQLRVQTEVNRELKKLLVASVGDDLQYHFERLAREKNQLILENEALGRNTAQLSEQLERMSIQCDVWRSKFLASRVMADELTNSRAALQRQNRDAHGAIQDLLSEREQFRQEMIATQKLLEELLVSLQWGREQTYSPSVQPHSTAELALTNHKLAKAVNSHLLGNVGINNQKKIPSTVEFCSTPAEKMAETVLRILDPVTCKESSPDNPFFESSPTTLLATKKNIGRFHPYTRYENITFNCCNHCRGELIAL
UniProt Q07817, whole entry, looked up: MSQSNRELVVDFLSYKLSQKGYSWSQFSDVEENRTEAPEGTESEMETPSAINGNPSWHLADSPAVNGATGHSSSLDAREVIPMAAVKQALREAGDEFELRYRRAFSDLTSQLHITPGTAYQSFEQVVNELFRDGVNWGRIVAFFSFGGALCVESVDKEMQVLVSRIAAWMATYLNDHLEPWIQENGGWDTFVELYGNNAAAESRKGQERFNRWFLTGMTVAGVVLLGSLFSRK
UniProt Q9UQB8: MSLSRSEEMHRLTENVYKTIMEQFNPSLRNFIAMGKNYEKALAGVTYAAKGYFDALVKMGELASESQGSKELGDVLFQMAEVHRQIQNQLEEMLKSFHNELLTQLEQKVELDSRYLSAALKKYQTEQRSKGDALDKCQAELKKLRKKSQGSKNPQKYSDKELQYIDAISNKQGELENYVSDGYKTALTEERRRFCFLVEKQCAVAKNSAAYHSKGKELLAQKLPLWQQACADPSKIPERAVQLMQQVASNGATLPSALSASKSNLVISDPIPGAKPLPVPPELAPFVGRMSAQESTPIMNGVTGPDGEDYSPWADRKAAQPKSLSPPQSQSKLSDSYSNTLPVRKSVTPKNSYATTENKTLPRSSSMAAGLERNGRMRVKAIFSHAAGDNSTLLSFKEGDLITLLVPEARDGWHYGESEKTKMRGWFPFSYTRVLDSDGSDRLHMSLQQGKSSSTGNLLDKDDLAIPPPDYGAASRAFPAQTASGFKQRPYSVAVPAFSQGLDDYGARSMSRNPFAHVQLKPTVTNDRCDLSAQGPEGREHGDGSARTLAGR
UniProt O15155: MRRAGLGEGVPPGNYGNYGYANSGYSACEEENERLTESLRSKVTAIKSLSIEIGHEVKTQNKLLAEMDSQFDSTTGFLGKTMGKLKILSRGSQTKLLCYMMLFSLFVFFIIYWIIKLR
UniProt P46736, whole entry, looked up: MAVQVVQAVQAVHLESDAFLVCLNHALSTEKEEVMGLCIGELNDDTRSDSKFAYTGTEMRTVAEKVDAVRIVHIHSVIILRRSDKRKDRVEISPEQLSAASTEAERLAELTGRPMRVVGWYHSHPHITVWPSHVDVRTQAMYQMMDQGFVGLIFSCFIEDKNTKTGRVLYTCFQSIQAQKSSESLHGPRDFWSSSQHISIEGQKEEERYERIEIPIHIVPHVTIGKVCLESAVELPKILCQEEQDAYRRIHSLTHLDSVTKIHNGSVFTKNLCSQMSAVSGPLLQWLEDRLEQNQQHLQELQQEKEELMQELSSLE
UniProt Q96GS4: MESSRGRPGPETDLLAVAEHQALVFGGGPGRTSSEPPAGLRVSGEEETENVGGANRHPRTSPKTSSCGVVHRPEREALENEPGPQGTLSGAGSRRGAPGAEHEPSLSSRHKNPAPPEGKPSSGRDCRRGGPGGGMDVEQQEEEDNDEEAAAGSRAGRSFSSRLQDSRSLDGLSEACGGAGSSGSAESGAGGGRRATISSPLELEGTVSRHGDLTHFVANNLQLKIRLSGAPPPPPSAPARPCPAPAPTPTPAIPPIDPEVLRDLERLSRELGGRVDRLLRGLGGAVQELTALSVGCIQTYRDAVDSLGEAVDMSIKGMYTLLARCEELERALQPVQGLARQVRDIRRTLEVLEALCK
UniProt Q6PJG6: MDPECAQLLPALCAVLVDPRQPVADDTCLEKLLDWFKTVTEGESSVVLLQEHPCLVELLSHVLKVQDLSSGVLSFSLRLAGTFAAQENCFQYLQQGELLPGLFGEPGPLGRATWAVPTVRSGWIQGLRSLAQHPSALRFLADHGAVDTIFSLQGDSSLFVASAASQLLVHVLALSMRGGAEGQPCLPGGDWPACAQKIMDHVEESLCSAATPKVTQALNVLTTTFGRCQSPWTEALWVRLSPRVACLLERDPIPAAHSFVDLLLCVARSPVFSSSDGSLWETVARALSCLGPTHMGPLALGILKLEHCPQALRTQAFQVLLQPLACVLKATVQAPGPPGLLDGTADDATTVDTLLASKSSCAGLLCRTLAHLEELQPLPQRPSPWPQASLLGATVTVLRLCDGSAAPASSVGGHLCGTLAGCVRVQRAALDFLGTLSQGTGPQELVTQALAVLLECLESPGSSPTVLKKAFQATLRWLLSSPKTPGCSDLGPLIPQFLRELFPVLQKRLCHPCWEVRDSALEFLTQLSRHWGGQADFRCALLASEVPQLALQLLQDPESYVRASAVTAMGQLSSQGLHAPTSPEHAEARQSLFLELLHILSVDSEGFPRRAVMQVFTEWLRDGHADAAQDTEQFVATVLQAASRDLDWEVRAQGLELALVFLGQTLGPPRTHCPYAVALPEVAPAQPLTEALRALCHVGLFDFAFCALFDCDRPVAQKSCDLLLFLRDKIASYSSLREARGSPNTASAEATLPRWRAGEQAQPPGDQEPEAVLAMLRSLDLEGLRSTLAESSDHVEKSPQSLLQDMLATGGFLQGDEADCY

Assays:
Experiment in all cases: log2 fold change, soluble protein after heating vs DMSO (PISA); higher = thermal stabilisation; K562 cells, 10 uM, 30 min; active = over 0.2 and 3.5 SD of the protein, either way, in both replicates (recomputed)
[1] = compound: CC1=C(C=C(C=C1)NC(=O)C2=CC(=CC=C2)C(C)(C)C#N)NC3=CC4=C(C=C3)N=CN(C4=O)C
In short: (§1)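 Soluble protein was defined as the supernatant after 21,000xg for 90 min. It came from K562 cells at 2×10^6 cells/mL given 10 μM compound for 30 min, heated in aliquots for 3 min across 48°C-58°C, pooled, and extracted in PBS with 0.5% NP-40 at 4°C, and was quantified by TMTpro 16plex LC-MS/MS with equalised channel sums. Thermal stability against control samples, from duplicates, is reported as log2 fold change.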

[2] = compound: CC1=C(C=C(C=C1)NC(=O)C2=CC(=CC=C2)N(C)C)NC(=O)C3=CC=C(C=C3)O
In short: as §1

[3] = compound: CC1=CC=C(C=C1)SC2=C3C=C(SC3=CN=C2)C(=O)N
In short: as §1

[4] = compound: CC1=NC(=CC=C1)C2=C(N=C(N2)C(C)(C)C)C3=CC4=NC=CN=C4C=C3
In short: as §1

Nexturastat A = compound: CCCCN(Cc1ccc(C(=O)NO)cc1)C(=O)Nc1ccccc1 [Nexturastat A]
In short: as §1

vemurafenib = compound: CCCS(=O)(=O)Nc1ccc(F)c(C(=O)c2c[nH]c3ncc(-c4ccc(Cl)cc4)cc23)c1F [vemurafenib]
In short: as §1

[5] = compound: CCCS(=O)(=O)Nc1ccc(F)c(C(=O)c2c[nH]c3ncc(Cl)cc23)c1F
In short: as §1

[6] = compound: CCCc1cc(C)[nH]c(=O)c1CNC(=O)c1cc(-c2ccnc(N3CCN(C)CC3)c2)cc2c1cnn2C(C)C
In short: as §1

givinostat = compound: CCN(CC)Cc1ccc2cc(COC(=O)Nc3ccc(C(=O)NO)cc3)ccc2c1 [givinostat]
In short: as §1

barasertib = compound: CCN(CCCOc1ccc2c(Nc3cc(CC(=O)Nc4cccc(F)c4)[nH]n3)ncnc2c1)CCOP(=O)(O)O [barasertib]
In short: as §1

[7] = compound: CC[C@@H]1C(=O)N(C)c2cnc(Nc3ccc(C(=O)NC4CCN(C)CC4)cc3OC)nc2N1C1CCCC1
In short: as §1

volasertib = compound: CC[C@@H]1C(=O)N(C)c2cnc(Nc3ccc(C(=O)N[C@H]4CC[C@H](N5CCN(CC6CC6)CC5)CC4)cc3OC)nc2N1C(C)C [volasertib]
In short: as §1

[8] = compound: CC[C@H](C)N1C=C(C2=C(C=C(C=C21)C3=CN=C(C=C3)N4CCNCC4)C(=O)NCC5=C(C=C(NC5=O)C)C)C
In short: as §1

epoxomicin = compound: CC[C@H](C)[C@@H](C(=O)N[C@@H]([C@@H](C)O)C(=O)N[C@@H](CC(C)C)C(=O)[C@]1(CO1)C)NC(=O)[C@H]([C@@H](C)CC)N(C)C(=O)C [epoxomicin]
In short: as §1

[9] = compound: CCn1c(C(=O)N(C2CC2)C2CC2)cc2c3c(ncn3C)c(Nc3cc(C)n(C)n3)nc21
In short: as §1

[10] = compound: CCn1cc(-c2ccnc3[nH]c(-c4cccc(CN(C)C)c4)cc23)c(-c2ccc(NC(=O)N(C)C)cc2)n1
In short: as §1

[11] = compound: CN(C)CC(=O)Nc1ccc2[nH]c(=O)c3ccccc3c2c1
In short: as §1

rosiglitazone = compound: CN(CCOC1=CC=C(C=C1)C[C@H]2C(=O)NC(=O)S2)C3=CC=CC=N3 (racemic) [rosiglitazone]
In short: as §1

[12] = compound: CN1C2=C(C3=C1C(=O)N(N=C3)CC4=CC(=CC=C4)N)SC(=C2)S(=O)C
In short: as §1

[13] = compound: CN1CCC(CNc2ccc3ncc(-c4cccc(OC(F)(F)F)c4)n3n2)CC1
In short: as §1

Measured: log2 fold change

BIRC2 (UniProt Q13490)
inactive: [1] -0.02 | [2] 0.007 | [3] 0.004 | [4] 0.013 | Nexturastat A -0.106 | vemurafenib 0.002 | [5] -0.054 | [6] -0.082 | givinostat 0.053 | barasertib 0.019 | [7] -0.027 | volasertib -0.094 | [8] 0.011 | epoxomicin 0.02 | [9] -0.017 | [10] -0.036 | [11] 0.023 | rosiglitazone 0.091 | [12] 0.035 | [13] -0.108

BABAM2 (UniProt Q9NXR7)
inactive: [1] 0.016 | [2] -0.098 | [3] -0.057 | [4] -0.013 | Nexturastat A -0.012 | vemurafenib -0.046 | [5] 0.006 | [6] -0.037 | givinostat -0.013 | barasertib -0.015 | [7] 0.038 | volasertib 0.107 | [8] -0.052 | epoxomicin -0.06 | [9] 0.023 | [10] -0.026 | [11] 0.012 | rosiglitazone -0.007 | [12] 0.001 | [13] 0.019

B4GALT2 isoform 3 (UniProt O60909)
inactive: [1] -0.002

BORCS5 (UniProt Q969J3)
inactive: [1] 0.071 | [2] 0.047 | [3] -0.013 | [4] 0.032 | Nexturastat A 0.11 | vemurafenib 0.137 | [5] -0.092 | [6] 0 | givinostat -0.017 | barasertib 0.016 | [7] -0.056 | volasertib 0.096 | [8] -0.016 | epoxomicin -0.111 | [9] 0.019 | [10] 0.066 | [11] 0.024 | rosiglitazone 0.027 | [12] -0.047 | [13] -0.238

BMS1 (UniProt Q14692)
inactive: [1] 0 | [2] 0.001 | [3] -0.07 | [4] -0.119 | Nexturastat A 0.19 | vemurafenib -0.079 | [5] -0.082 | [6] 0.148 | givinostat 0.041 | barasertib -0.116 | [7] 0.114 | volasertib 0.058 | [8] 0.035 | epoxomicin -0.127 | [9] -0.044 | [10] 0.146 | [11] -0.077 | rosiglitazone -0.098 | [12] 0.235 | [13] 0.222

BNIP2 (UniProt J3KN59)
inactive: [1] 0.01 | [2] 0.032 | [3] 0.028 | [4] -0.071 | Nexturastat A -0.256 | vemurafenib 0.016 | [5] 0.06 | [6] -0.147 | givinostat -0.035 | barasertib 0.017 | [7] -0.081 | volasertib -0.438 | [8] -0.079 | epoxomicin -0.068 | [9] -0.04 | [10] 0.082 | [11] 0.003 | rosiglitazone 0.002 | [12] -0.108 | [13] -0.192

BCL2L13 (UniProt Q9BXK5)
inactive: [1] 0.033 | [2] 0.029 | [3] 0.004 | [4] 0.039 | Nexturastat A -0.031 | vemurafenib 0.003 | [5] 0.013 | [6] -0.014 | givinostat 0.03 | barasertib -0.019 | [7] -0.026 | volasertib -0.229 | [8] 0.017 | epoxomicin 0.024 | [9] -0.007 | [10] -0.01 | [11] 0.006 | rosiglitazone 0.031 | [12] -0.075 | [13] -0.023

B3GNT2 (UniProt Q9NY97)
inactive: [1] -0.003 | [2] -0.003 | [3] -0.036 | [4] 0.073 | Nexturastat A -0.024 | vemurafenib 0.022 | [5] 0.017 | [6] 0.089 | givinostat 0.031 | barasertib -0.01 | [7] -0.164 | volasertib -0.196 | [8] 0.133 | epoxomicin 0.04 | [9] 0.013 | [10] 0.03 | [11] -0.023 | rosiglitazone 0.039 | [12] -0.104 | [13] -0.021

B3GAT3 (UniProt O94766)
inactive: [1] -0.098 | [2] -0.055 | [3] 0.034 | [4] -0.028 | Nexturastat A -0.016 | vemurafenib -0.027 | [5] 0.019 | [6] -0.021 | givinostat 0.037 | barasertib 0.088 | [7] -0.068 | volasertib -0.112 | [8] 0 | epoxomicin -0.019 | [9] -0.036 | [10] 0.028 | [11] -0.146 | rosiglitazone -0.108 | [12] -0.057 | [13] 0.121

BOLA2 (UniProt Q9H3K6)
inactive: [1] 0.021 | [2] -0.062 | [3] 0.066 | [4] 0.012 | Nexturastat A -0.072 | vemurafenib 0.03 | [5] 0.073 | [6] -0.039 | givinostat 0.014 | barasertib 0.033 | [7] -0.094 | volasertib -0.096 | [8] 0.037 | epoxomicin 0.047 | [9] 0.029 | [10] -0.035 | [11] 0.01 | rosiglitazone 0.009 | [12] -0.073 | [13] 0.006

BCAP31 isoform 2 (UniProt P51572)
inactive: [1] 0.018 | [2] 0.017 | [3] -0.064 | [4] -0.004 | Nexturastat A -0.08 | vemurafenib -0.014 | [5] -0.079 | [6] 0.061 | givinostat -0.019 | barasertib 0 | [7] -0.001 | volasertib 0.086 | [8] -0.058 | epoxomicin -0.003 | [9] 0.032 | [10] 0.056 | [11] -0.051 | rosiglitazone -0.009 | [12] -0.02 | [13] 0.137

Fetched one by one from the list above (two):
BOLA2 (UniProt Q9H3K6)
inactive: [1] 0.021 | [2] -0.062 | [3] 0.066 | [4] 0.012 | Nexturastat A -0.072 | vemurafenib 0.03 | [5] 0.073 | [6] -0.039 | givinostat 0.014 | barasertib 0.033 | [7] -0.094 | volasertib -0.096 | [8] 0.037 | epoxomicin 0.047 | [9] 0.029 | [10] -0.035 | [11] 0.01 | rosiglitazone 0.009 | [12] -0.073 | [13] 0.006

BCL2L13 (UniProt Q9BXK5)
inactive: [1] 0.033 | [2] 0.029 | [3] 0.004 | [4] 0.039 | Nexturastat A -0.031 | vemurafenib 0.003 | [5] 0.013 | [6] -0.014 | givinostat 0.03 | barasertib -0.019 | [7] -0.026 | volasertib -0.229 | [8] 0.017 | epoxomicin 0.024 | [9] -0.007 | [10] -0.01 | [11] 0.006 | rosiglitazone 0.031 | [12] -0.075 | [13] -0.023

Continuation:

BLOC1S5 (UniProt Q8TDH9)
inactive: [1] -0.027 | [2] 0.006 | [3] -0.047 | [4] 0.037 | Nexturastat A -0.051 | vemurafenib 0.029 | [5] 0.001 | [6] -0.015 | givinostat -0.046 | barasertib -0.028 | [7] 0.005 | volasertib 0.017 | [8] -0.017 | epoxomicin -0.007 | [9] -0.035 | [10] -0.017 | [11] 0.036 | rosiglitazone 0.031 | [12] -0.039 | [13] 0.023

BLZF1 (UniProt Q9H2G9)
inactive: [1] 0.048

BCL2L1 (UniProt Q07817)
inactive: [1] 0.135 | [2] 0.023 | [3] 0.007 | [4] -0.023 | Nexturastat A -0.004 | vemurafenib 0.061 | [5] 0.046 | [6] -0.064 | givinostat 0.032 | barasertib -0.01 | [7] 0.021 | volasertib -0.004 | [8] -0.025 | epoxomicin 0 | [9] 0.04 | [10] 0.065 | [11] 0.001 | rosiglitazone 0.018 | [12] -0.095 | [13] 0.225

BAIAP2 isoform 4 (UniProt Q9UQB8)
inactive: [1] 0.034

BET1 (UniProt O15155)
inactive: [1] 0.03 | [2] -0.027 | [3] 0.017 | [4] -0.008 | Nexturastat A -0.065 | vemurafenib 0.025 | [5] 0.015 | [6] -0.083 | givinostat -0.016 | barasertib -0.017 | [7] 0 | volasertib -0.049 | [8] 0.008 | epoxomicin 0.032 | [9] 0.06 | [10] -0.004 | [11] 0 | rosiglitazone 0.035 | [12] -0.019 | [13] -0.024

BRCC3 (UniProt P46736)
inactive: [1] -0.061 | [2] 0.007 | [3] -0.009 | [4] -0.066 | Nexturastat A -0.043 | vemurafenib -0.037 | [5] -0.014 | [6] -0.041 | givinostat -0.016 | barasertib -0.046 | [7] 0.063 | volasertib 0.095 | [8] -0.048 | epoxomicin -0.081 | [9] 0.001 | [10] 0.027 | [11] -0.039 | rosiglitazone -0.011 | [12] 0.005 | [13] 0.096

BORCS6 (UniProt Q96GS4)
inactive: [1] 0.113 | [2] 0.029 | [3] 0.066 | [4] -0.007 | Nexturastat A -0.122 | vemurafenib 0.021 | [5] 0.009 | [6] -0.023 | givinostat 0.007 | barasertib 0.063 | [7] -0.033 | volasertib -0.1 | [8] 0.041 | epoxomicin 0.143 | [9] 0.047 | [10] -0.108 | [11] 0.002 | rosiglitazone 0.023 | [12] -0.111 | [13] -0.176

BRAT1 (UniProt Q6PJG6)
inactive: [1] 0.007 | [2] 0.007 | [3] 0.013 | [4] 0.028 | Nexturastat A -0.012 | vemurafenib 0.071 | [5] -0.003 | [6] -0.001 | givinostat -0.008 | barasertib 0.008 | [7] -0.102 | volasertib -0.097 | [8] -0.013 | epoxomicin 0.036 | [9] 0.053 | [10] -0.049 | [11] 0.035 | rosiglitazone 0.023 | [12] -0.041 | [13] -0.016
